Test results from US20150177250A1, “DETERMINATION OF EFFICIENT TIME(S) FOR CHEMOTHERAPY DELIVERY” (Mayo Foundation for Medical Education and Research, priority 2012, published 2015).
At least one structure is not confirmed: it was looked up by name or label, or the drawing left a doubt.

Tested on: patients with unresectable stage IV malignant melanoma
Experiment: clinical trial of temozolomide chemotherapy timed against immune variable fluctuations
Format: in vivo, human
Conditions: TMZ 150 mg/m^2 on days 1-5 of cycle 1, 200 mg/m^2 in subsequent cycles, every 4 weeks; delivery at a defined time in the biorhythmic immune oscillation

Cn1nnc2c(C(N)=O)ncn2c1=O [TMZ, temozolomide]
clinical outcome (progression free survival, PFS): appears to correlate with improved clinical outcome
